For at least one entry, the source does not settle the construct or the ends of the probe. For part of these data: At least one verdict rests on a figure or table, not on a statement of the authors. Protein sequences can lack the tags named with them.
What was measured:
CmpR = molecular target: T1, CmpR (UniProt Q55459); assay: SPR; conditions: 1.5 uM CmpR (binding enhanced), SPR: 10 mM Pipes pH 7.4, 300 mM NaCl, 0.02% Tween-20, 25 uL/min, temperature not stated, recombinant protein, label: 5' biotin (forward strand), probe letters rebuilt from the primers and the genome
T1 sequence (looked up, limits assumed): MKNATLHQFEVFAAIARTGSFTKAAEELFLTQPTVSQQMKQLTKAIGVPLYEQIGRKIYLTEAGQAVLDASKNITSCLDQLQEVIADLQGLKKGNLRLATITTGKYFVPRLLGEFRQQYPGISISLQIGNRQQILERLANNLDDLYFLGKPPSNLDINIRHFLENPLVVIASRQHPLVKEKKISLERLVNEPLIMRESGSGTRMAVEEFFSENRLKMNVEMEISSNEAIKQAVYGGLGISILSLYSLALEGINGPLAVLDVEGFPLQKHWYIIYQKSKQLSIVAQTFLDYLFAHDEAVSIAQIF

[1] = tested on: T2, CcmR (Synechocystis sp. PCC 6803); assay: SPR; conditions: NADP+ or alpha-ketoglutarate (similar enhancement, not shown); SPR: 10 mM Pipes pH 7.4, 300 mM NaCl, 0.02% Tween-20, 25 uL/min, temperature not stated; recombinant protein; protein details: His-tag; label: 5' biotin (forward strand); probe letters rebuilt from the primers and the genome
T2 sequence (looked up, limits assumed): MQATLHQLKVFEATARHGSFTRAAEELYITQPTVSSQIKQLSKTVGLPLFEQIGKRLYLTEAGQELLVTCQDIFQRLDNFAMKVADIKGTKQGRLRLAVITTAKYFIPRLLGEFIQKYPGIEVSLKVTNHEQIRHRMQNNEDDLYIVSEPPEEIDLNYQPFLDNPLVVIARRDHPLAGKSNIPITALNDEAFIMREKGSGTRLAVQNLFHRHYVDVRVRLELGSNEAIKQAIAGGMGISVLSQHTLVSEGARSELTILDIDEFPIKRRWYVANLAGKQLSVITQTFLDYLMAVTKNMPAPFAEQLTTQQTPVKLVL

Row | Sequence | binding result (CmpR; 2-phosphoglycolate 10-500 uM) | binding result (CmpR; RuBP 10-500 uM) | binding result [1]
1 | AATTTACGTCGATTGAATGAACCCATAACTTTGATTGATTTTTTCTATGAAAAAAGGCAGACAGAAAAATTAAATAAGCGCCATGGATATCCCCGGTTTACGGAAGAGCACTGGGGCTCCTAGGCTAGGTAAACCAGGGGACGCTTTAAACTGCCTGCCCGAGGACAATGACTAATCCAAGGGGACTTGAATGATCTGATTATTAAGGAAAGCTAAAAATAGATAAATATCCAATTTTTTATGTAATTTATAGAAGTAGTCTATAAAATTAATCCACTATGAAAAATGCCACCCTCCACCA (double strand) [cmpA promoter] | binds | binds | 
2 | GCTCCCCGGACTAAGCTTGTCAAAATCATTGGCTTTATTCTATCATTGGTTATCTAACAACAATCCCAGGTCTATGAAAGTGAGTGTAATAGCCATAGGTCTATTTTAGTTATTGACTTCAGCACATCCTAGACCCAAG (double strand) [pccmR (SPR)] |  |  | binds

Reference: paper PMC3401165, “Regulation of the Cyanobacterial CO2-Concentrating Mechanism Involves Internal Sensing of NADP^+ and α-Ketogutarate Levels by Transcription Factor CcmR” (PLoS ONE, 2012)
